Here are results for one molecule from patent US20070275944A1, “Antioxidants and methods of their use” (The Board of Trustees Operating Michigan State University, priority 2006, published 2007).

For the data set, the system named is mouse brain, dopaminergic neurons. In words: MRI imaging of mouse brain after injection of tracer. The class given is in vivo. The text has this: The central figure is a chimera directly comparing the left hemisphere of the control with the right hemisphere of the TP-TEMPO treated. In this central image the “Y” shaped region (1) is where the dopaminergic neurons are found.
With its dependence on the more biologically variable parameters of proton density, longitudinal relaxation time (T1), and transverse relaxation time (T2), variable image contrast can be achieved by using different pulse sequences and by changing the imaging parameters. Signal intensities on T1, T2, and proton density-weighted images relate to specific tissue characteristics. Moreover, with MRI's multi-planar capability, the imaging plane can be optimized for the anatomic area being studied, and the relationship of lesions to eloquent areas of the brain can be defined more accurately. Since T2-weighted images are most sensitive for detecting brain pathology, patients with suspected intracranial disease are typically screened using the T2-weighted regime. However, it has proven difficult to apply MRI to Parkinson's disease, as the dompaminergic neurons have the same MRI characteristics as the surrounding tissues, so that the Parkinson's lesions are invisible using conventional MRI and can only be detected using histology post-mortem. […]

For `CN1CC=C(C2CC(C)(C)N(O)C(C)(C)C2)CC1` [TP-TEMPO, 2,2,6,6-tetramethyl-4-(1-methyl-1,2,3,6-tetrahydropyridin-4-yl)piperidin-1-oxyl], where the note is “mice imaged at 24, 48 and 72 hours after injection”, the “time after administration of optimal signal to noise ratio” value stood at 48 h. Further, the “MRI images of brain, proton-water MRI signals” value (mice, 24 hours after injection) is on record as “unable to show any proton-water MRI signals”.
